Assay results reported in patent publication US20260028424A1 (GRANULAR THERAPEUTICS, published 2026).
No constants are given. Whether binding was seen depends on the method and setting. Some binding calls cover weakened binding; strength is not graded here.

Amino acid sequences for entries named in this document (tags omitted). A change or cut given only in a name is not applied to a line headed by its entry.
UniProt P10721: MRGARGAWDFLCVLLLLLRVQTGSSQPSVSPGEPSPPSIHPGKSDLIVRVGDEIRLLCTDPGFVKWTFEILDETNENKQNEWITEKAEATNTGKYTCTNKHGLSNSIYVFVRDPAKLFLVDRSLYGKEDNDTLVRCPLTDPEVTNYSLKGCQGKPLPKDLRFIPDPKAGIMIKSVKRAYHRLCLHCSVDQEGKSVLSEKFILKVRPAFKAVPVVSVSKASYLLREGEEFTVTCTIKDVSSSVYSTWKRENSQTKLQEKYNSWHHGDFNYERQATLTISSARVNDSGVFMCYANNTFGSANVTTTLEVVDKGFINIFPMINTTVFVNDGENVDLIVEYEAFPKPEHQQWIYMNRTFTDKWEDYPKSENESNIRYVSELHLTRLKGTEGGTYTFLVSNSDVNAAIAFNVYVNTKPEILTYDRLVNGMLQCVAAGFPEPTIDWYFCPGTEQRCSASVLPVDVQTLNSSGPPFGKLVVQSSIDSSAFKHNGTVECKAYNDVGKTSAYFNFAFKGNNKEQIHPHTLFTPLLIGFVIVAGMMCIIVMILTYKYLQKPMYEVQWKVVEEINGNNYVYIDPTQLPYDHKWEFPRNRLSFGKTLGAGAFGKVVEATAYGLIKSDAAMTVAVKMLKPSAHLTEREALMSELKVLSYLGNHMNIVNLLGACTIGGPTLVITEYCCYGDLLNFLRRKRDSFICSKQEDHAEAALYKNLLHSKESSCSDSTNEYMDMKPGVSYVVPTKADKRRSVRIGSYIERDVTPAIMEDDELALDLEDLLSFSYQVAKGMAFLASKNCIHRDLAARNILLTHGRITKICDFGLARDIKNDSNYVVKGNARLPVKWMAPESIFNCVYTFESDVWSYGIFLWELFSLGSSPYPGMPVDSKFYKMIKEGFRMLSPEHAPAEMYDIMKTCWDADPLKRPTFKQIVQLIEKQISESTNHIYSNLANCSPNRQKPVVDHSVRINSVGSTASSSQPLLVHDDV

Key:
cyno c-Kit (SPR) (cyno) = experiment: SPR, single-cycle kinetics
[1] = biological target: c-Kit (antigen of the binding assay of FIG. 9A) (Homo sapiens (Human)) (UniProt P10721); experiment: plate binding assay on Human c-KIT, A450-A630 (ratio corrected)

| Binder | binding (cyno c-Kit (SPR) (cyno)) | binding [1] |
| --- | --- | --- |
| MH1/F6.12 bispecific (parental, before pI engineering) (bispecific antibody, V domains shown, Knob-in-hole IgG1null bispecific with human Ckappa; also called parental bispecific MH1/F6.12) VH 1: QVQLVQSGAEVKKPGASVKVSCKASGYTFTDYYMNWVRQAPGQGLEWMGRIYPGSGNTYYAQKFQGRVTMTRDTSTSTVYMELSSLRSEDTAVYYCARGVYYYDYWGQGTLVTVSS VH 2: EVQLVQSGAEVKKPGESLKISCKGSGYRFASNWIGWVRQMPGKGLEWMGEIYPGDSNTRYSPSFQGQVTISADKSISTAYLQWSSLKASDTAMYYCARKDYYYGIMDVWGQGTTVTVSS VL: DIQMTQSPSSLSASVGDRVTITCRASQGIRTNLAWFQQKPGKAPKSLIYAASSLQSGVPSRFSGSGSGTDFTLTISSLQPEDFATYYCQQYNSYPRTFGGGTKVEIK | binds |  |
| F6/MH1 common light chain bispecific (anti-CD203c F6 x anti-c-Kit MH1) (bispecific antibody, V domains shown, Knob-in-hole IgG1null bispecific with human Ckappa; also called F6/MH1 bispecific molecule) VH 1: QVQLVQSGAEVKKPGASVKVSCKASGYTFTDYYMNWVRQAPGQGLEWMGRIYPGSGNTYYAQKFQGRVTMTRDTSTSTVYMELSSLRSEDTAVYYCARGVYYYDYWGQGTLVTVSS VH 2: EVQLVQSGAEVKKPGESLKISCKGSGYRFASNWIGWVRQMPGKGLEWMGEIYPGDSNTRYSPSFQGQVTISADKSISTAYLQWSSLKASDTAMYYCARKDYYYYAMDVWGQGTTVTVSS VL: DIQMTQSPSSLSASVGDRVTITCRASQGIRTNLAWFQQKPGKAPKSLIYAASSLQSGVPSRFSGSGSGTDFTLTISSLQPEDFATYYCQQYNSYPRTFGGGTKVEIK |  | binds |
| MH1_C/F6.12_D bispecific (pI-engineered) (bispecific antibody, V domains shown, Knob-in-hole IgG1null bispecific with human Ckappa) VH 1: QVQLVQSGAEVKEPGASVKVSCKASGYTFTDYYMNWVRQAPGQGLEWMGRIYPGSGNTYYAQNFQGRVTMTRDTSTSTVYMELSSLRSEDTAVYYCARGVYYYDYWGQGTLVTVSS VH 2: QVQLVQSGAEVKKPGESLKISCKGSGYRFASNWIGWVRQMPGKGLEWMGEIYPGDSNTRYSPSFQGQVTISADKSISTAYLQWSRLKASDTAMYYCARKDYYYGIMDVWGQGTTVTVSS VL: DIQMTQSPSSLSASVGDRVTITCRASQGIRTNLAWFQQKPGKAPKSLIYAASSLQSGVPSRFSGSGSGTDFTLTISSLQPEDFATYYCQQYNSYPRTFGGGTKVEIK | binds |  |
